# Literature values in US5354758A, “Benzomorphans useful as NMDA receptor antagonists” (priority 1992, dated 1994).
# Chains of the proteins cited; added tags and fusions are not shown.
# UniProt P33535, whole entry: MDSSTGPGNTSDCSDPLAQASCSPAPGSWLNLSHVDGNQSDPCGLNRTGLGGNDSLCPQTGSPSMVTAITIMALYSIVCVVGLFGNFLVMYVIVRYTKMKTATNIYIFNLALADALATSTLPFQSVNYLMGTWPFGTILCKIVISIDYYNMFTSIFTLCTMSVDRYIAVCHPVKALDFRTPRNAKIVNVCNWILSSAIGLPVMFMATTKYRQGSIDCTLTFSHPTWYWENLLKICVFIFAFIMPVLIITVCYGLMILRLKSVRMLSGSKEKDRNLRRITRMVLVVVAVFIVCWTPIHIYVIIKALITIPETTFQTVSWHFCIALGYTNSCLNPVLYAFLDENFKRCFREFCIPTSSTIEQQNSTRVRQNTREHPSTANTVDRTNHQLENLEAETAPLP
# Target: μ-site of opioid receptor (Rattus norvegicus, UniProt P33535)
# Conditions: shown previously; tested as the radiolabelled form; cited from earlier work
structure (smiles),measurement,value
C[C@@H](NC(=O)[C@@H](N)Cc1ccc(O)cc1)C(=O)NCC(=O)N(C)[C@@H](Cc1ccccc1)C(=O)NCCO,high-affinity ligand at the μ site of the opioid receptor,high-affinity

# Structures were worked out from names or drawings and are uncertain.
